Here are results for 1 substance from paper doi:10.1101/2025.11.07.687187.

The chains behind the UniProt entries cited, without tags or fusion partners.
UniProt Q9NX04: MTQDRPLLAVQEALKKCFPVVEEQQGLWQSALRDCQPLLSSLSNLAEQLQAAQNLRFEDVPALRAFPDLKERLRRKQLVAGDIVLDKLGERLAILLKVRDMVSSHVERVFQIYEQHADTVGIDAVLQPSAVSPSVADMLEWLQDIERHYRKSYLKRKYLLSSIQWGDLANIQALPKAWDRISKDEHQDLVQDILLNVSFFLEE

Experiment [1] deals with T1, SPATA5L1 (human (endogenous in HCT116)) (UniProt Q9BVQ7).
T1 sequence: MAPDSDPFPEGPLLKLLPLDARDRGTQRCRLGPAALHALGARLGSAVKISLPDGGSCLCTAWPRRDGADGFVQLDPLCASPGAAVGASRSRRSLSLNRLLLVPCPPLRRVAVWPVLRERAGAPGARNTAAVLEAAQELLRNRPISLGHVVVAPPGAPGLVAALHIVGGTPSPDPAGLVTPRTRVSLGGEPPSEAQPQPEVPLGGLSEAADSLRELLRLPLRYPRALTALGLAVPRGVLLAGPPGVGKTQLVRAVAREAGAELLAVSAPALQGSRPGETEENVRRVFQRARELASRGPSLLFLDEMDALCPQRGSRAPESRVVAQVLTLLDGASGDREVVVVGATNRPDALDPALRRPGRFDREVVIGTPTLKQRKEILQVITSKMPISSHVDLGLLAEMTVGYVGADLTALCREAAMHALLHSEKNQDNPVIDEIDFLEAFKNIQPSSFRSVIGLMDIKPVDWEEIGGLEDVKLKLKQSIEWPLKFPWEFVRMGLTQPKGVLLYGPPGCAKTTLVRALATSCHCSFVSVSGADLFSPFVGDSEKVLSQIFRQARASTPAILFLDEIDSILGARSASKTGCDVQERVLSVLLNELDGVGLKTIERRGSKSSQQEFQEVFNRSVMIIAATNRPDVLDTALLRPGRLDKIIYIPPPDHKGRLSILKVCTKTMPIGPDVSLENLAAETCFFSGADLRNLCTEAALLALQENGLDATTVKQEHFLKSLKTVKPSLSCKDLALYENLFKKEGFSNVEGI
In words: affinity purification with mass spectrometry.

In experiment [2] the target is T2, SPATA5 (human (endogenous in HCT116)) (UniProt Q8NB90).
T2 sequence: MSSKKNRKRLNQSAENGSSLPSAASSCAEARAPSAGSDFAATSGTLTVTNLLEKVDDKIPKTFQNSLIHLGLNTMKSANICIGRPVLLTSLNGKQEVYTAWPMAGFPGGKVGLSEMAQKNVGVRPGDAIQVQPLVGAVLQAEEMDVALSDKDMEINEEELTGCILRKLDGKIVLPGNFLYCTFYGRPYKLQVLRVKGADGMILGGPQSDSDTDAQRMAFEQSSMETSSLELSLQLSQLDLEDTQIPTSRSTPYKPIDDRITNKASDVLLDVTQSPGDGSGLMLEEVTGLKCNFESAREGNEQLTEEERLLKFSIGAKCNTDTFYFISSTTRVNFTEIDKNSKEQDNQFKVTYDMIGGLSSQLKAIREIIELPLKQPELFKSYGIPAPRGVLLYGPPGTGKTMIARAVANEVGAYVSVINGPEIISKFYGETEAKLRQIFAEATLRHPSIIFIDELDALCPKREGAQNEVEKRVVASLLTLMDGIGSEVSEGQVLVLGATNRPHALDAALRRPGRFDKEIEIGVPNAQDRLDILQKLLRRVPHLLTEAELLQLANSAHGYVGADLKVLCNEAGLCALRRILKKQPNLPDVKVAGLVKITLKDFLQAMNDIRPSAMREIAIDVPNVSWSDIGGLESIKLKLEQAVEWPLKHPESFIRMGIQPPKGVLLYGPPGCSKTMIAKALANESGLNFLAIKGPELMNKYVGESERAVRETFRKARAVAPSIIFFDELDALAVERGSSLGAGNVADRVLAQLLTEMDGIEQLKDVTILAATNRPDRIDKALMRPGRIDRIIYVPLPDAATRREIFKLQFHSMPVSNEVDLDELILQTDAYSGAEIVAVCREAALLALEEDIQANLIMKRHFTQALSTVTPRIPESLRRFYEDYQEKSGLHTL
Nature of the experiment: affinity purification with mass spectrometry.

No constants are given. Whether binding was seen depends on the method and setting. Binding seen in cells or lysates may run through a third protein. A yes stands for co-enrichment or nearness to the bait. Other partners may have been found.

In the case of C1ORF109 (from UniProt Q9NX04 1-203), the binding result in experiment [1] and in experiment [2] was “binds” each time.
